For 42 sequences, binding signal results are on record in PMC7819943, “Rice protein-binding microarrays: a tool to detect cis-acting elements near promoter regions in rice”.

Protein sequences, listed by entry. Tags and fused reporters are not part of them.
UniProt Q0JBA9, entry or part of it: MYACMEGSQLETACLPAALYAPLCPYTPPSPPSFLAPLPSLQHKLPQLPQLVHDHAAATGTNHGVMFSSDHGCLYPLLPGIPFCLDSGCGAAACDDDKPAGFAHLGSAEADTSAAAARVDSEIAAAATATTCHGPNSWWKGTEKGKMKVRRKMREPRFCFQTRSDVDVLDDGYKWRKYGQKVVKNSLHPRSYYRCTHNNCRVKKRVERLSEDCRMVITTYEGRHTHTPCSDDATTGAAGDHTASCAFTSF

Some of the results follow.

The target of this test is OsWRKY34 (Oryza sativa, UniProt Q0JBA9 1-250). Briefly: protein-binding microarray (RPBM); PBS, 2% BSA, 51.3 ng/ul salmon testes DNA, 50 uM zinc acetate, 200 nM TF, 25 C, 1 h; high values mean tight binding. To be noted: protein: recombinant; tags: N-terminal polyhistidine and DsRed monomer fusion (pET32a); label: CyDye5-dUTP incorporated in the synthesized complementary strand; 3' TTTTT single-stranded linker to array surface; dsDNA, one strand shown. The method in brief:
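The binding signal is fluorescence intensity per feature, in arbitrary units, read on an Axon 4000B scanner. Polyhistidine- and DsRed-tagged transcription factors (N-terminal fusions) from E. coli BL21-CodonPlus were purified on Ni–NTA and applied at 200 nM for 1 h at 25 °C to a double-stranded, BSA-blocked custom Agilent array in buffer with 50 µM zinc acetate.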
Regarding “CCTGAAGGAGTTTGGGCTCGCCGCCTCCACCTCATCGTCTCGGAGTCACCTAGTGCAG”, the binding signal was 8720 fluorescence intensity (a.u.).

“CCCTATCCCCTCATCTCACTGCAGCTTTCCACTATACTACCGGAGTCACCTAGTGCAG”: the binding signal was 8440 fluorescence intensity (a.u.).

“CAACTGTTCTCTTTTATTGGTTCAACCGGATTATATCCGGCGGAGTCACCTAGTGCAG”: the binding signal is 8490 fluorescence intensity (a.u.).

As to “TTTCATTTGCAAATCCCATAGTTCCATTCCAATCCCATGACGGAGTCACCTAGTGCAG”, the binding signal is 8930 fluorescence intensity (a.u.).

Turning to “GTAAATTTTTCCTTGCCTTATCCTACACCCAGGCCTAGATCGGAGTCACCTAGTGCAG”, the binding signal is 8400 fluorescence intensity (a.u.).

On to “CCGTCCGTCTTATTTGAATTTTTTTAAAAATTAGTACTTTCGGAGTCACCTAGTGCAG”, for which the binding signal was 8970 fluorescence intensity (a.u.).

Turning to “CTATCTCTGTTTACCTTTTCTCATAGATTTTTATTCGCGCCGGAGTCACCTAGTGCAG”, the binding signal was 9250 fluorescence intensity (a.u.).

For the sequence “TCTTGGGCTGGGTCTGCTGGGATTTATGTTTACAATTGTTCGGAGTCACCTAGTGCAG”, the binding signal was 14200 fluorescence intensity (a.u.).

As for “CTCAGCTCAGCTGCATGCTGCTGAGTGGCTGGGTGGGGTACGGAGTCACCTAGTGCAG”, the binding signal was 9080 fluorescence intensity (a.u.).

As to “ACCACCACGCCACGCGACGCGAGGCTCCGCGCGCATCGCGCGGAGTCACCTAGTGCAG”, the binding signal is 8660 fluorescence intensity (a.u.).

In the case of “GCGCTCGCGCGGCGGAGATCGGCTGCCACCGCGGGCGGGACGGAGTCACCTAGTGCAG”, the binding signal was 9000 fluorescence intensity (a.u.).

As for “CCACCTCCACCGACGCCGCCGTCGTGTCGCCGTCTCCGAGCGGAGTCACCTAGTGCAG”, the binding signal is 8750 fluorescence intensity (a.u.).

Turning to “CTGACTATTGTACTATTATTATTGTTACCTTCATCTTAAACGGAGTCACCTAGTGCAG”, the binding signal is 8140 fluorescence intensity (a.u.).

In the case of “CAAAGTTGTGTGTTGTGAAGTGTGAAGGAGAGCTCTATTTCGGAGTCACCTAGTGCAG”, the binding signal is 8610 fluorescence intensity (a.u.).

Take “CATGCTTCCTTGTCCCATTACTACATCGTCGTTGTGTTCACGGAGTCACCTAGTGCAG”: the binding signal is 8750 fluorescence intensity (a.u.).

On to “TGGGTCATTTATTGATTATTGTATTATTGTTCCTTATATTCGGAGTCACCTAGTGCAG”, for which the binding signal is 8710 fluorescence intensity (a.u.).

For the sequence “CGCGCGCACCTACCTACCGTGAAATTTTCCCTTTTCTCCGCGGAGTCACCTAGTGCAG”, the binding signal was 8460 fluorescence intensity (a.u.).

Turning to “AAAAAAGGCGCACACATGTACCCATTATCCATAAGTTAACCGGAGTCACCTAGTGCAG”, the binding signal was 8030 fluorescence intensity (a.u.).

Regarding “GTTCCATTTCCGCCTTGCTCGAGCCAGCAACCAAACTGCACGGAGTCACCTAGTGCAG”, the binding signal was 9220 fluorescence intensity (a.u.).

On to “AAATACCGTTTCGTTTCCACCGTTTTTACTCCGATATTTTCGGAGTCACCTAGTGCAG”, for which the binding signal was 11700 fluorescence intensity (a.u.).

With “GTCCAAAATGTATCTTCCTGTGTTTTGAATTCCATTGTTTCGGAGTCACCTAGTGCAG”, the binding signal is 10800 fluorescence intensity (a.u.).

Take “CTTTGGGAGTCGCACGCTTTCACCCTCTTCCACCTCTCGCCGGAGTCACCTAGTGCAG”: the binding signal was 9260 fluorescence intensity (a.u.).

Turning to “AGTTTGGTTACATGTCAGGCTGCATTTTTTACATTGATCACGGAGTCACCTAGTGCAG”, the binding signal was 9470 fluorescence intensity (a.u.).

On to “CTCTCCTCTCCGGTCATCTCATATATACGTATCTATATCGCGGAGTCACCTAGTGCAG”, for which the binding signal was 8520 fluorescence intensity (a.u.).

Consider “GCCATGGTTTTCCGCACCCAACTTTAACCGTTCGTCTTATCGGAGTCACCTAGTGCAG”, for which the binding signal was 9060 fluorescence intensity (a.u.).

Consider “ATCAGGCGGGTATTTTGGATATTTAGGTTTAGGGAGGAGGCGGAGTCACCTAGTGCAG”, for which the binding signal is 8480 fluorescence intensity (a.u.).

Take “TCTTAGTTTTGGCCATTTGCCATTGACTCTGTCCTTTTCTCGGAGTCACCTAGTGCAG”: the binding signal is 9680 fluorescence intensity (a.u.).

With “TCCGGTTTAGTTAGTCCCTTTTTGGCCTATATTCCTCTAACGGAGTCACCTAGTGCAG”, the binding signal is 13400 fluorescence intensity (a.u.).

Consider “TGACGGGGATGGTTAATATCTACTCACCATGAGGAATAAACGGAGTCACCTAGTGCAG”, for which the binding signal is 8630 fluorescence intensity (a.u.).

For “CGTCTTCTATGTCGGCCCCTACCGGCCCGGTTTCCCTGCACGGAGTCACCTAGTGCAG”, the binding signal was 8790 fluorescence intensity (a.u.).

Consider “GCCGCCGCCGCCACCATCGCCGGCGCGTCACAGTCCACCACGGAGTCACCTAGTGCAG”, for which the binding signal was 8070 fluorescence intensity (a.u.).

As to “TAGCTGATACTAGTGTGTTTTCTTTCTTGGTTGCTTTGATCGGAGTCACCTAGTGCAG”, the binding signal is 9940 fluorescence intensity (a.u.).

Take “AACAACCACCACCGCCTCTGCCTCACCACCGTCCGAGTCGCGGAGTCACCTAGTGCAG”: the binding signal is 8820 fluorescence intensity (a.u.).

Take “GGAGTTTTAATAATGATTTTAGGGTGGGTGGAAAGATTACCGGAGTCACCTAGTGCAG”: the binding signal is 9760 fluorescence intensity (a.u.).

“GCATGCTCTTCTGATCTGTAATCTCAGGCTCTATTACTCTCGGAGTCACCTAGTGCAG”: the binding signal was 8790 fluorescence intensity (a.u.).

Consider “CATAAGTTCGTACCACTGACTATATATACCAATGCATCCTCGGAGTCACCTAGTGCAG”, for which the binding signal is 9590 fluorescence intensity (a.u.).

Take “AAAAATCAGGTGAAATTTCTGCTCTCTCATCACTTGTCCACGGAGTCACCTAGTGCAG”: the binding signal was 8700 fluorescence intensity (a.u.).

As for “CTGGTTACTTTCTCATTTCTTCCTCGCTCGCGCGCTCTCTCGGAGTCACCTAGTGCAG”, the binding signal was 10800 fluorescence intensity (a.u.).

For the sequence “ATATGCAGGATTGCATGTGGTTGTTACTTTACATTCATTTCGGAGTCACCTAGTGCAG”, the binding signal is 9030 fluorescence intensity (a.u.).

Regarding “TCTCTGTCTCACTCTTCCTCTCTCTCACACGCACGGCGAGCGGAGTCACCTAGTGCAG”, the binding signal is 8380 fluorescence intensity (a.u.).

Regarding “AGCTCAGTGCCCTTTTCTTCCTCATTTTTTCTTAGTCCGGCGGAGTCACCTAGTGCAG”, the binding signal was 8860 fluorescence intensity (a.u.).

In the case of “ACACTTTGACTCTTTGATTTAGTAAGCTCGAGTTTATTTTCGGAGTCACCTAGTGCAG”, the binding signal is 9030 fluorescence intensity (a.u.).
